Among all 400,000 compounds or so, about 13,000 (3.2%) were called active. The shares of active, inactive and inconclusive entries below differ from those in the screen. The call rests on the fitted dose curve; in most records, active means well fitted cell-killing curve with a large enough effect; inconclusive means small, poorly fitted or top-dose-only effect, or effect the other way; inactive means flat fitted curve, though single readings scatter. Potencies of inconclusive entries are doubtful fits and often do not repeat. The source holds several records for some structures; these can differ, active in one and inactive in another.
test: qHTS assay for MDR1-selective chemotherapeutics: Primary screen using the drug-selected MDR subline cells KB-V1; details: KB-V1 MDR cells viability, CellTiter-Glo, 72 h; series mostly up to 46.1 µM; further: nearly all actives have a fitted effect of over 60% in size
Procedure, shortened: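 In this primary screen, KB-V1 cells overexpressing P-gp are incubated with library compounds (lowest to highest concentration) for 72 h at 37 degrees C before a luminescent ATP viability read.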
Potency means the concentration at half of the fitted maximal effect.

Question: Which Potency does the source give for `Cc1ccc(COC(=O)CN2C(=O)NC3(CCCCC3C)C2=O)cc1` (stereo unspecified) here?
Answer: inactive

Question: Which Potency does the source give for `CCn1c(SCCOc2ccc(Cl)cc2)nnc1-c1cccs1` here?
Answer: active: 9.2 µM

Question: Which Potency does the source give for `CC(C)(C)NC(=O)C(c1ccco1)N(Cc1ccc2c(c1)OCO2)C(=O)Cn1nnc2ccccc21` (stereo unspecified) here?
Answer: inconclusive: 8.2 µM [cytotoxic, partial curve]

Question: For `Nc1c(C(=O)NCc2ccc(Cl)cc2Cl)nnn1Cc1ccc(Br)cc1`, which Potency is on record?
Answer: inconclusive: 29.1 µM [cytotoxic, single point]

Question: With `CCCN(C(=O)c1cccc(S(=O)(=O)N2CCCc3ccccc32)c1)C1CCS(=O)(=O)C1` (stereo unspecified) as the molecule, how does the Potency read?
Answer: inactive

Question: With `N#CC(=NCc1cccnc1)C1=C(O)c2ccccc2C1=O` as the molecule, how does the Potency read?
Answer: inconclusive: 18.4 µM [rising, partial curve]

Question: For `N#C/C(=C\c1cn(-c2ccccc2)nc1-c1ccccc1)S(=O)(=O)c1ccccc1`, which Potency is on record?
Answer: inconclusive: 20.6 µM [cytotoxic, single point]

Question: Which Potency does the source give for `Cc1ccc(NC(=O)CSc2nc3ccccc3c3nc4ccccc4n23)cc1` here?
Answer: active: 1.64 µM

Question: For `CCN(C(=O)COC(=O)c1cc(=O)c2ccccc2o1)c1c(N)n(Cc2ccccc2)c(=O)[nH]c1=O`, which Potency is on record?
Answer: inconclusive: 11.6 µM [rising, partial curve]

Question: For `O=C1c2ccccc2C(=O)N1CCSc1nnc(-c2ccco2)n1Cc1ccccc1`, which Potency is on record?
Answer: inconclusive: 11.6 µM [cytotoxic, partial curve]

Question: With `O=[N+]([O-])c1ccc2nc(-[n+]3c(-c4ccccc4)cc(-c4ccccc4)cc3-c3ccccc3)[nH]c2c1` as the molecule, how does the Potency read?
Answer: inconclusive: 23.1 µM [cytotoxic, partial curve, poor fit]

Question: With `O=C(OCc1ccc([N+](=O)[O-])cc1)c1cc(S(=O)(=O)N2CCCCC2)ccc1N1CCOCC1` as the molecule, how does the Potency read?
Answer: inconclusive: 29.1 µM [cytotoxic, single point]

Question: With `CCOC(=O)C1=CCC(c2cccn2C(=O)OC(C)(C)C)N(S(=O)(=O)c2ccc(C)cc2)C1` (stereo unspecified) as the molecule, how does the Potency read?
Answer: inactive

Question: For `c1ccc(-c2onc(-c3ccco3)c2-c2ccc3[nH]ccc3c2)cc1`, which Potency is on record?
Answer: active: 23.1 µM

Question: For `Cc1ccc(NC(=O)CN2CCc3ccccc3C2)cc1S(=O)(=O)N1CCOCC1`, which Potency is on record?
Answer: active: 8.2 µM

Question: Which Potency does the source give for `O=C(NCc1ccco1)/C(=C/C=C\c1ccccc1)NC(=O)c1ccc(Br)o1` here?
Answer: active: 4.11 µM

Question: For `N/C(=N\OC(=O)c1ccc2ccccc2c1)c1ccccn1`, which Potency is on record?
Answer: inconclusive: 29.1 µM [cytotoxic, single point]

Question: Which Potency does the source give for `O=C(CCCc1nc2ccccc2s1)NCc1ccccc1` here?
Answer: active: 23.1 µM

Question: Which Potency does the source give for `Cc1ccc(S(=O)(=O)N(C)c2ccc(C(=O)O)cc2)cc1` here?
Answer: inconclusive: 18.4 µM [rising, single point]

Question: With `Cc1cc(C)c2c(N)c3cccc(C)c3nc2n1` as the molecule, how does the Potency read?
Answer: active: 8.2 µM

Question: Which Potency does the source give for `Cc1sc(N2C(=O)C3C4C=CC(C4)C3C2=O)c(C#N)c1C` (stereo unspecified) here?
Answer: inconclusive: 23.1 µM [cytotoxic, single point]

Question: For `Cn1c([N+](=O)[O-])cnc1N1CCN(c2nncs2)C1=O`, which Potency is on record?
Answer: inactive

Question: With `COc1ccccc1CN1C(=O)C(Cc2ccccc2)ON=C1c1ncccc1C` (stereo unspecified) as the molecule, how does the Potency read?
Answer: inconclusive: 18.4 µM [cytotoxic, single point]

Question: With `COCCCn1c(=N)c(C(=O)NCC2CCCO2)cc2c(=O)n3cc(C)ccc3nc21` (stereo unspecified) as the molecule, how does the Potency read?
Answer: inconclusive: 29.1 µM [rising, single point]

Question: Which Potency does the source give for `COc1ccc(NC(=O)c2oc3ccccc3c2NC(=O)C2CCCO2)cc1OC` (stereo unspecified) here?
Answer: inactive

Question: For `COC(=O)c1ccc(C(=O)NC2CCCc3c2cnn3-c2ccc(C)c(C)c2)cc1` (stereo unspecified), which Potency is on record?
Answer: active: 5.17 µM

Question: Which Potency does the source give for `COc1cc(NC(=O)COc2ccc(-n3cnnn3)cc2)cc(OC)c1OC` here?
Answer: inactive

Question: With `CC(=O)OCC(=O)[C@H]1CC[C@H]2[C@@H]3CCC4=CC(=O)CC[C@]4(C)[C@H]3CC[C@]12C` as the molecule, how does the Potency read?
Answer: active: 14.6 µM

Question: With `Cc1ccc(CN2CCN(Cc3ccccc3C(F)(F)F)CC2)cc1` as the molecule, how does the Potency read?
Answer: inconclusive: 29.1 µM [cytotoxic, single point]

Question: For `CC(OC(=O)c1ccc2c(c1)OCO2)C(=O)NC1CCCCC1` (stereo unspecified), which Potency is on record?
Answer: inconclusive: 13 µM [cytotoxic, single point]

Question: For `CCc1ccc(-c2cc(C)no2)cc1S(=O)(=O)N1CCN(c2ccc(OC)cc2)CC1`, which Potency is on record?
Answer: inconclusive: 7.31 µM [cytotoxic, partial curve]

Question: For `C=CC[C@]12CCc3sccc3C1N(c1ccc(C(=O)OCC)cc1)C2=O` (stereo partly specified), which Potency is on record?
Answer: inactive

Question: Which Potency does the source give for `Cn1nccc1-c1ccc(C(=O)NCc2ccco2)c2occc12` here?
Answer: inconclusive: 32.6 µM [cytotoxic, single point]

Question: With `O=C(c1c(F)cccc1F)N1CCCC(c2nc(-c3ccc(Cl)cc3)no2)C1` (stereo unspecified) as the molecule, how does the Potency read?
Answer: inconclusive: 25.9 µM [cytotoxic, single point]

Question: For `Cc1ccc2nc3c(cc2c1)c(NC(=O)C1CCCO1)nn3CC(C)C` (stereo unspecified), which Potency is on record?
Answer: inconclusive: 2.59 µM [cytotoxic, full curve]

Question: With `COc1cccc(-c2nn3c(=O)cc(CN4CCN(S(=O)(=O)c5ccc(C)cc5)CC4)nc3s2)c1` as the molecule, how does the Potency read?
Answer: inactive

Question: Which Potency does the source give for `Cc1ccccc1C(=O)Nc1cccc(-c2ccc(N3CCOCC3)nn2)c1` here?
Answer: inconclusive: 10.3 µM [cytotoxic, partial curve]

Question: With `Cc1csc2nc(SCC(=O)Nc3ccccc3F)[nH]c(=O)c12` as the molecule, how does the Potency read?
Answer: inconclusive: 29.1 µM [cytotoxic, single point]

Question: For `O=c1oc2c(O)cccc2cc1-c1nc2ccccc2[nH]1`, which Potency is on record?
Answer: inactive

Question: For `CC1CC(C)CN(C(=O)CSc2ncnc3sccc23)C1` (stereo unspecified), which Potency is on record?
Answer: active: 20.6 µM

Question: With `CCCCS(=O)(=O)c1sc2nc(C)cc(C)c2c1N` as the molecule, how does the Potency read?
Answer: inconclusive: 20.6 µM [cytotoxic, partial curve]

Question: Which Potency does the source give for `CCOC(=O)c1c(C)c(C(=O)Nc2ccc3c(c2)OCCO3)c(C)n1C` here?
Answer: active: 14.6 µM

Question: With `O=c1[nH]c(C2CCN(S(=O)(=O)c3ccc(C(F)(F)F)cc3)CC2)nc2c1nnn2Cc1ccccc1` as the molecule, how does the Potency read?
Answer: inconclusive: 23.1 µM [cytotoxic, single point]

Question: Which Potency does the source give for `OCCCNc1ncnc2[nH]ncc12` here?
Answer: inactive

Question: Which Potency does the source give for `O=C(O)CSCC(=O)c1ccccc1` here?
Answer: inconclusive: 0.0326 µM [rising, full curve]

Question: With `Cc1cc(C)c(C)c(S(=O)(=O)N2CCN(c3ccccn3)CC2)c1C` as the molecule, how does the Potency read?
Answer: inconclusive: 16.4 µM [cytotoxic, partial curve, poor fit]

— PubChem BioAssay AID1347076 (National Center for Advancing Translational Sciences (NCATS), 2019)
